PubChem BioAssay AID1224830, NIAID, 2016

Screen: 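Host factors that control LPS-induced TNF expression in human macrophages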 (primary screen)
Cell system: human THP-1 monocytic leukaemia cells, TNF dual-luciferase reporter clone, PMA-differentiated to macrophage-like cells
Reagent: siRNA pool against human genes, 50 nM
Timing: LPS for 4 h, given about 3 days after siRNA transfection
Challenge: bacterial LPS (TLR4 ligand), 10 ng/ml
Measurement: 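Ratio of firefly to renilla light, scaled to the plate median and expressed as a robust z-score per replicate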
Scale: TNF reporter robust z-score: higher = stronger TNF reporter response to LPS
Rule for the call: 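a well is active when its z-score exceeds 2.8 or falls below -1.5; control wells carry no call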
The deposit covers about 18,000 reagents; shown is an unselected part. Of all reagents, about 2,900 (16%) got an active call. 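Calls are made per well; low scores hint the gene aids the LPS response, high scores that it dampens it.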 Repeated entries: four replicate wells of each siRNA pool.

target gene | TNF reporter robust z-score | activity call
LAMC3 | 1.68 | inactive
LAMC3 | 3.48 | active
LAMC3 | 2.53 | inactive
LAMC3 | 1.32 | inactive
FPGS | -1.75 | active
FPGS | -1.69 | active
FPGS | -1.77 | active
FPGS | -1.96 | active
GTF3C3 | 0.47 | inactive
GTF3C3 | 0.61 | inactive
GTF3C3 | -0.08 | inactive
GTF3C3 | -1.16 | inactive
TNFRSF10B | 4.47 | active
TNFRSF10B | 4.77 | active
TNFRSF10B | 1.97 | inactive
TNFRSF10B | 1.39 | inactive
FKBP2 | -0.34 | inactive
FKBP2 | -0.36 | inactive
FKBP2 | -0.42 | inactive
FKBP2 | -0.54 | inactive
PRR19 | -0.8 | inactive
PRR19 | 1.08 | inactive
PRR19 | -0.16 | inactive
PRR19 | 0.46 | inactive
LDHD | -0.15 | inactive
LDHD | 0.85 | inactive
LDHD | -0.21 | inactive
LDHD | -0.4 | inactive
FGD6 | 0.22 | inactive
FGD6 | -0.43 | inactive
FGD6 | 0.62 | inactive
FGD6 | 1.31 | inactive
SLC45A2 | 0.03 | inactive
SLC45A2 | 0.72 | inactive
SLC45A2 | 2.09 | inactive
SLC45A2 | 1.61 | inactive
HUNK | -1.14 | inactive
HUNK | 0.29 | inactive
HUNK | -1.35 | inactive
HUNK | -0.87 | inactive
FBH1 | -0.36 | inactive
FBH1 | -0.55 | inactive
FBH1 | -0.84 | inactive
FBH1 | -0.88 | inactive
GID4 | -1.06 | inactive
GID4 | -0.85 | inactive
GID4 | -1.66 | active
GID4 | -0.58 | inactive
RABGEF1 | -1.14 | inactive
RABGEF1 | -0.87 | inactive
RABGEF1 | -1.05 | inactive
RABGEF1 | -0.53 | inactive

Continued; the last 16 above are carried over.
target gene | TNF reporter robust z-score | activity call
HUNK | -1.14 | inactive
HUNK | 0.29 | inactive
HUNK | -1.35 | inactive
HUNK | -0.87 | inactive
FBH1 | -0.36 | inactive
FBH1 | -0.55 | inactive
FBH1 | -0.84 | inactive
FBH1 | -0.88 | inactive
GID4 | -1.06 | inactive
GID4 | -0.85 | inactive
GID4 | -1.66 | active
GID4 | -0.58 | inactive
RABGEF1 | -1.14 | inactive
RABGEF1 | -0.87 | inactive
RABGEF1 | -1.05 | inactive
RABGEF1 | -0.53 | inactive
ATAD2 | -1.24 | inactive
ATAD2 | -1.15 | inactive
ATAD2 | -0.98 | inactive
ATAD2 | -0.71 | inactive
TMEM80 | 0.32 | inactive
TMEM80 | 1.33 | inactive
TMEM80 | 0.71 | inactive
TMEM80 | 1 | inactive
USP22 | -0.41 | inactive
USP22 | 0.04 | inactive
USP22 | 0.39 | inactive
USP22 | 1.61 | inactive
USP5 | 0.16 | inactive
USP5 | -1.06 | inactive
USP5 | -0.38 | inactive
USP5 | 0.36 | inactive
NUDT9 | -0.05 | inactive
NUDT9 | 1.88 | inactive
NUDT9 | 1.72 | inactive
NUDT9 | 1.07 | inactive
CHI3L1 | 1.93 | inactive
CHI3L1 | 0.79 | inactive
CHI3L1 | 1.34 | inactive
CHI3L1 | -1.01 | inactive
LRRC57 | -0.45 | inactive
LRRC57 | -0.75 | inactive
LRRC57 | -0.85 | inactive
LRRC57 | -0.42 | inactive
NPTXR | 2.64 | inactive
NPTXR | 2.1 | inactive
NPTXR | 0.79 | inactive
NPTXR | 1.08 | inactive
ITGB5 | -0.23 | inactive
ITGB5 | 0.39 | inactive
ITGB5 | 0.26 | inactive
ITGB5 | 0.52 | inactive
CRYGA | -0.82 | inactive
CRYGA | -0.41 | inactive
CRYGA | -0.6 | inactive
CRYGA | -0.39 | inactive
GSTM5 | -0.74 | inactive
GSTM5 | -0.54 | inactive
GSTM5 | -0.11 | inactive
GSTM5 | -0.61 | inactive
DUS2 | -0.26 | inactive
DUS2 | 0.08 | inactive
DUS2 | -0.4 | inactive
DUS2 | 2.36 | inactive
NEIL1 | 0.26 | inactive
NEIL1 | 1.24 | inactive
NEIL1 | 1.08 | inactive
NEIL1 | 0.99 | inactive
FGF20 | 0.43 | inactive
FGF20 | 1.34 | inactive
FGF20 | 1.09 | inactive
FGF20 | -0.51 | inactive
DENND5B | 0.11 | inactive
DENND5B | 0.15 | inactive
DENND5B | 0.2 | inactive
DENND5B | 0.35 | inactive
